50 compounds from PubChem BioAssay AID485318 (Broad Institute, 2010) can be followed below.

The chains behind the UniProt entries cited, without tags or fusion partners. Where a name states a change or a piece, a line headed by the entry shows the natural chain unless it says otherwise.
UniProt O15379: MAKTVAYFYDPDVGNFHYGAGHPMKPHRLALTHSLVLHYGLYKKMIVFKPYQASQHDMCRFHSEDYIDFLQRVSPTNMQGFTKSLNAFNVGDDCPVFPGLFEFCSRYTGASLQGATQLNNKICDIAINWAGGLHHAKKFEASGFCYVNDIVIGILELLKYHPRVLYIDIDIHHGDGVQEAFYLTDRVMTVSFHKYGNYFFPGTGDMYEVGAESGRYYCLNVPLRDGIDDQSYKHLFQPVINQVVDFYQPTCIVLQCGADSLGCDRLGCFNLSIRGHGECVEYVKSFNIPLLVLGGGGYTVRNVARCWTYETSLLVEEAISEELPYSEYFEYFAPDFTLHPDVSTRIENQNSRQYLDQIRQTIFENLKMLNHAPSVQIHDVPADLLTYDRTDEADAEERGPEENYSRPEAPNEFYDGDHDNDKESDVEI

In all, about 1,400 compounds went through this assay and fewer than 10 were called active.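 The calls were made as follows: active = fluorescence-lowering compounds whose fitted half-maximal concentration is at or below ten times the highest valid dose tested; inconclusive = flat curve at 30 to 70% inhibition, or poor fit; inactive = the rest.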 Some of the results follow.

The assay has as its target Histone deacetylase 3 (Homo sapiens) (UniProt O15379). Kind of assay: inhibition of human HDAC3 enzymatic activity – biochemical, fluorescence, cherry-picked samples, counter-screen for JMJD2C/GASC1 demethylase inhibitor project, dose response (AID 485318).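 Also: enzyme preincubated with compound before substrate and trypsin were added; 0% = neutral control wells and -100% = SAHA positive control wells.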 The note with it: recombinant HDAC3, fluorogenic peptide/trypsin coupled; at 12 µM (top of the series). (A counterscreen serves to expose hits that act by an unwanted route or on another target.)
`Fc1ccccc1OCCCCn1cncn1`: the activity change, negative = inhibition is inactive: -0.561%.

`CCCCC1CCC(C(=O)N(CC(C)C)c2c(N)n(Cc3ccccc3)c(=O)[nH]c2=O)CC1` (stereo not given): the activity change, negative = inhibition was inactive: 0.64%.

Take `CCc1ccc(-c2cc(C)no2)cc1S(=O)(=O)NCCc1ccc(OC)c(OC)c1`: the activity change, negative = inhibition was inactive: 1.04%.

For `Cn1c(=O)c2c(ncn2CCN(CCO)Cc2ccccc2)n(C)c1=O`, the activity change, negative = inhibition is inactive: -0.278%.

As for `CCOC(=O)c1c(C)n(C)c2ccc(O)c(S(=O)(=O)c3ccccc3)c12`, the activity change, negative = inhibition was inactive: 0.00557%.

As for `O=C(/C=C/c1cc([N+](=O)[O-])ccc1OC(F)F)Nc1ccc(OC(F)F)cc1`, the activity change, negative = inhibition is inactive: -0.338%.

Turning to `COC(=O)C1=C(C(=O)OC)SC(=C2C(=S)C(C)(C)N(C(=O)C(C)C)c3ccccc32)S1`, the activity change, negative = inhibition is inactive: -0.163%.

As for `COC(=O)CNS(=O)(=O)c1ccc(C)cc1`, the activity change, negative = inhibition is inactive: -0.826%.

As to `Cc1ccccc1NC(=O)c1c(F)c(F)c(F)c(F)c1F`, the activity change, negative = inhibition is inactive: 0.457%.

On to `CN(C(=O)c1ccccn1)c1nnc(-c2ccccn2)s1`, for which the activity change, negative = inhibition is inactive: -0.4%.

Regarding `CCOc1ccc(-c2nc(CSCC(=O)NC3CCCc4ccccc43)c(C)o2)cc1` (stereo not given), the activity change, negative = inhibition was inactive: 0.296%.

For the compound `S=c1[nH]nc(COc2ccccc2)n1/N=C/c1ccccn1`, the activity change, negative = inhibition is inactive: 0.592%.

Consider `CCCn1nnnc1SCC(=O)NNC(=O)c1ccco1`, for which the activity change, negative = inhibition is inactive: 0.361%.

As for `COCCCNC(=O)c1ccc2c(c1)CCN2S(C)(=O)=O`, the activity change, negative = inhibition was inactive: -0.279%.

With `Cc1cccc(NC(=O)C2CCN(S(=O)(=O)c3cccc4nsnc34)CC2)n1`, the activity change, negative = inhibition was inactive: 0.00374%.

Consider `C=CCNC(=O)c1ccc(S(=O)(=O)CC)c(Cl)c1Cl`, for which the activity change, negative = inhibition was inactive: 0.0672%.

Take `CN(c1cccc(Cl)c1)S(=O)(=O)c1cccc(C(=O)Nc2ccc3c(c2)CCC3)c1`: the activity change, negative = inhibition was inactive: -0.407%.

For the compound `COCCCn1c(SCC(=O)NCc2ccco2)nc2sc3c(c2c1=O)CCC3`, the activity change, negative = inhibition was inactive: 0.159%.

`O=c1ccc(=O)n2n1CC(O)C2`: the activity change, negative = inhibition was inactive: 0.0396%.

In the case of `C#CCOCCOCCOCCNc1nc(N2CCN(C(=O)[C@H](CCC(=O)O)n3cc([C@@H](N)CCCCN)nn3)CC2)nc(N2CCN(C(=O)[C@H](CCC(=O)O)n3cc([C@@H](N)CCCCN)nn3)CC2)n1`, the activity change, negative = inhibition is inactive: -0.665%.

With `CN(C(=O)COc1ccccc1)c1nnc(-c2ccncc2)s1`, the activity change, negative = inhibition is inactive: 0.797%.

With `C[C@H](CO)N1C[C@H](C)[C@@H](CN(C)S(=O)(=O)c2ccccc2)Oc2c(NC(=O)CCC(F)(F)F)cccc2C1=O`, the activity change, negative = inhibition was inactive: 0.587%.

For `COc1ccc(/C(C)=N/Nc2nccnc2Cl)cc1`, the activity change, negative = inhibition was inactive: 0.584%.

On to `Cc1cccc(NS(=O)(=O)c2cccc3nsnc23)c1`, for which the activity change, negative = inhibition was inactive: 0.0826%.

For `Cc1cc(=O)[nH]c(CN2CCOCC2)n1`, the activity change, negative = inhibition was inactive: 0.884%.

In the case of `COc1ccc(OC)c(/C=C2\SC(=S)N(Cc3cccnc3)C2=O)c1`, the activity change, negative = inhibition was inactive: 0.203%.

With `Cc1ccc(C(=O)Nc2sc3c(c2C(=O)O)CCCC3)o1`, the activity change, negative = inhibition was inactive: -0.148%.

On to `N#C/C(N=Nc1ccccc1O)=N\Nc1ccccc1O`, for which the activity change, negative = inhibition is inactive: 0.341%.

Turning to `Cn1c(=O)c2c(nc(NC3CCCCC3)n2Cc2ccccc2)n(C)c1=O`, the activity change, negative = inhibition is inactive: 0.361%.

On to `CC(=O)N(C)C1=C(N2CCOCC2)C(=O)c2ccccc2C1=O`, for which the activity change, negative = inhibition was inactive: 0.32%.

As for `C[C@@]12C(=O)Nc3cc(F)c(F)cc3C(=O)N1[C@H]1c3cc(Cl)ccc3OC[C@@H]1[C@@H]2c1ccccc1`, the activity change, negative = inhibition is inactive: 0.00585%.

For `CCCCn1c(=O)[nH]c(=O)c2c1nc(-c1cc(Cl)c(OC)c(OC)c1)n2C`, the activity change, negative = inhibition was inactive: 1.11%.

Regarding `CCC(CC)NC(=O)CSc1nnc(-c2ccc(OC)cc2)n1C(C)C`, the activity change, negative = inhibition was inactive: 0.191%.

For the compound `O=c1n(Cc2ccccc2)c2cc(Cl)cnc2n1Cc1ccccc1`, the activity change, negative = inhibition is inactive: -0.29%.

For `CC[C@@]1(C(=O)OC)N[C@H](CN(C)C(=O)Nc2ccc(C)cc2)[C@@H]2C(=O)N(C)C(=O)[C@@H]21`, the activity change, negative = inhibition is inactive: 0.71%.

Regarding `C[C@H](CO)N1C[C@H](C)[C@@H](CN(C)Cc2ccncc2)Oc2c(NC(=O)Cc3ccccc3)cccc2C1=O`, the activity change, negative = inhibition is inactive: 0.369%.

As for `CC#CCOC(=O)c1c(C)nc2sc3c(c2c1N)CCC(O)C3` (stereo not given), the activity change, negative = inhibition was inactive: 0.329%.

Take `C=CCOc1ccc(C(=O)NC2CCCCC2)cc1`: the activity change, negative = inhibition was inactive: -0.562%.

On to `Cn1c(=O)[nH]c(=O)c2c1nc(N1CCc3ccccc3C1)n2CCSc1nc2ccccc2s1`, for which the activity change, negative = inhibition was inactive: -0.287%.

In the case of `CC(=O)N=c1sccn1CC(=O)c1ccc([N+](=O)[O-])cc1`, the activity change, negative = inhibition is inactive: 0.58%.

Take `CCOC(=O)C1CCN(S(=O)(=O)c2cccc(-c3cn4cc(Cl)ccc4n3)c2)CC1`: the activity change, negative = inhibition is inactive: 0.424%.

Take `COc1ccc(NC(=O)Nc2c[nH]c(=O)[nH]c2=O)cc1OC`: the activity change, negative = inhibition is inactive: -0.634%.

As to `O=C(c1cccc(-n2cccc2)c1)N1CCN(S(=O)(=O)c2c(F)cccc2F)CC1`, the activity change, negative = inhibition was inactive: -0.285%.

With `Cc1ccc(C(=O)NCCCCNC(=O)c2ccc(C)o2)o1`, the activity change, negative = inhibition was inactive: 0.494%.

As to `Cc1cccc2c1-c1sc(C(=O)Nc3cccc([N+](=O)[O-])c3C)cc1CO2`, the activity change, negative = inhibition was inactive: 0.313%.

With `Cn1cccc1-c1nc2ccc(NC(=O)c3cccs3)cc2[nH]1`, the activity change, negative = inhibition is inactive: -0.389%.

Regarding `C[C@H](CO)N1C[C@H](C)[C@@H](CN(C)C(=O)NC2CCCCC2)Oc2c(NC(=O)c3ccncc3)cccc2C1=O`, the activity change, negative = inhibition is inactive: 0.748%.

Turning to `Cn1c2ccccc2c2c(C(=O)N3CCN(c4ccccn4)CC3)cn(C3CCCC3)c(=O)c21`, the activity change, negative = inhibition was inactive: 0.168%.

Turning to `O=C(NCc1cccc(F)c1)C1CCN(S(=O)(=O)Cc2ccccc2)CC1`, the activity change, negative = inhibition was inactive: 0.13%.

As for `C[C@@H]1CC[C@]2(C(=O)O[C@@H]3O[C@H](CO)[C@@H](O)[C@H](O)[C@H]3O)CC[C@]3(C)C(=CCC4[C@@]5(C)C[C@@H](O)[C@H](O)[C@@](C)(C(=O)O[C@@H]6[C@H](O)C[C@@]7(C)C(CC[C@]8(C)C7CC=C7[C@H]9[C@](C(=O)O[C@@H]%10O[C@H](CO)[C@@H](O)[C@H](O)[C@H]%10O)(CC[C@@H](C)[C@@]9(C)O)CC[C@]78C)[C@@]6(CO)C(=O)O)C5CC[C@]43C)[C@@H]2[C@]1(C)O` (stereo not given in full), the activity change, negative = inhibition is inactive: 0.0643%.
